# These are yes or no findings as the source states them, for the method shown. For some assays here: Binding seen in cells or lysates may run through a third protein. Some binding calls cover weakened binding; strength is not graded here. For some assays here: Where a sequence is shown, tags or fusion partners need not be part of it.
# T1: GyrB (Treponema pallidum) (UniProt O08399)
# T1 sequence: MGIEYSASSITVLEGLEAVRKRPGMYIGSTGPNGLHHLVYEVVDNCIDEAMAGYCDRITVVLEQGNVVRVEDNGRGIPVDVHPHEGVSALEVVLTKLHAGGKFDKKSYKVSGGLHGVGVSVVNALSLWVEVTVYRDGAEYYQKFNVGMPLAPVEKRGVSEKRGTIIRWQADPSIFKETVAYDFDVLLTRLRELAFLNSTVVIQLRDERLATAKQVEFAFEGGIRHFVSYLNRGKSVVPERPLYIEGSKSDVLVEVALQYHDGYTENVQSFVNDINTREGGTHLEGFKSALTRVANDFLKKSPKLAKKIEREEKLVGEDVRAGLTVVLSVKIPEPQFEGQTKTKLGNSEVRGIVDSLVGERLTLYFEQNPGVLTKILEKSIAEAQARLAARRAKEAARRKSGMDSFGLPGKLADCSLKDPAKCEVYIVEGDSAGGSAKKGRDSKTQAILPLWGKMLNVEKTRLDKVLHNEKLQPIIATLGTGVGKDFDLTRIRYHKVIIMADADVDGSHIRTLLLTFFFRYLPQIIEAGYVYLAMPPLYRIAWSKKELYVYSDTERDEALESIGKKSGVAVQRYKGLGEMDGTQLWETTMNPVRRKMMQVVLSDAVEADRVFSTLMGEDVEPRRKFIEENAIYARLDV
# T2: ribulose-3-P-epimerase (Treponema pallidum) (UniProt O66107)
# T2 sequence: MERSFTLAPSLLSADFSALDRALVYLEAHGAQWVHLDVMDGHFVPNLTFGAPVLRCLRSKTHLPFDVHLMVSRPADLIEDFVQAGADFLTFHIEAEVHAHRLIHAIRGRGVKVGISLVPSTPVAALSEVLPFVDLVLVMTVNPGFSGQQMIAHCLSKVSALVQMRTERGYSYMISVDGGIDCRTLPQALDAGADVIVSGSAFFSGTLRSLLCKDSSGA
# T3: Myc-tagged GyrB protein (Treponema pallidum) (UniProt O08399)
# T3 sequence: T1 sequence
# T4: peptide deformylase (Treponema pallidum) (UniProt B2S3Z6)
# T4 sequence: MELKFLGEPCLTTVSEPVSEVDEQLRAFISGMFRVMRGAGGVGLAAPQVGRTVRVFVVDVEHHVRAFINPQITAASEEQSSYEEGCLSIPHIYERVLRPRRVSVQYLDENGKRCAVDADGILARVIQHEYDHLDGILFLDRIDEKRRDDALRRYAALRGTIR
# T5: ribosomal protein L32 (Treponema pallidum) (UniProt B2S446)
# T5 sequence: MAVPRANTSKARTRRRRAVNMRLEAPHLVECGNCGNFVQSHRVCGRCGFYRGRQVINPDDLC
# T6: TP0701 (Treponema pallidum) (UniProt O83699)
# T6 sequence: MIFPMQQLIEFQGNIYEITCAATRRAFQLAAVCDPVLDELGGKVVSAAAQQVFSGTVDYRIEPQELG
# T7: DNA replication initiation protein DnaA (Treponema pallidum) (UniProt B2S1V1)
# T7 sequence: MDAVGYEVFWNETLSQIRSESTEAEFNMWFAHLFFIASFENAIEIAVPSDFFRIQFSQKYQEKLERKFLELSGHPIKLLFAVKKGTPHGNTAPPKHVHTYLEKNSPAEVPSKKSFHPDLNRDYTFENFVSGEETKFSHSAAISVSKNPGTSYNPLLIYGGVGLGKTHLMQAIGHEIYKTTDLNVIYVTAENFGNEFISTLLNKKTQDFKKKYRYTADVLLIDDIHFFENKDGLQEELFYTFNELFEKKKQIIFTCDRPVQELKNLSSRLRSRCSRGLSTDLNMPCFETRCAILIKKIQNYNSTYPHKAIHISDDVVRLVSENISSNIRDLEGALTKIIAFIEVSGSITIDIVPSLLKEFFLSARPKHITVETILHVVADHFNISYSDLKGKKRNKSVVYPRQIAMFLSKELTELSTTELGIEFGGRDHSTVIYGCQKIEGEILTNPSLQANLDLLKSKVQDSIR
# T8: SbcD (Treponema pallidum) (UniProt O83634)
# T8 sequence: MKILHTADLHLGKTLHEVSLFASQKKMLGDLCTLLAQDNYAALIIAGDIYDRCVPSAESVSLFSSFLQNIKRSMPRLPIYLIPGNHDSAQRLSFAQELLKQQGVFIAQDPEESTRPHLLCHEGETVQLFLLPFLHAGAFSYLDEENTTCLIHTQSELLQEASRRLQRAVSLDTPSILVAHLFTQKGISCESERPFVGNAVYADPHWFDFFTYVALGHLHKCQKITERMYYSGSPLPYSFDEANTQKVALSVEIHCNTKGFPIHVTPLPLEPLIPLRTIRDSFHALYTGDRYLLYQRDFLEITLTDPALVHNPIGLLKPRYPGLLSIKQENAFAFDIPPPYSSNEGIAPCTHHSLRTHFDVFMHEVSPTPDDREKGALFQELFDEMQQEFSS
# B1: TP0004 (protein, UniProt O83050 1-145)
# chain: MNNGVNKLSDLLVLTTEYIQASYETEAFDAHREWVCIVGNPVALHSTLVDIRNGKVVVKVTHPGWAQYLLLKKDEIVHALRRRYPSLGVTGMSTYVDSTSRTPSAKKDMQGLSVSEKQTRPVPELAEVFEQLRTLFQVKTEEPSH
# B2: TP0320 (protein, UniProt O83340 1-51)
# chain: MPPVPARGRPSSSSDFCLYGMAVVNGFCVQDIPYGSRVVLPGRMRSSSAGA
# B3: HA-tagged protein TP0004 (protein, UniProt O83050 1-145)
# chain: B1 chain
# B4: TP0650 (protein, UniProt O83656 1-160)
# chain: MSEVNKVSVSCEGFCPPPWIGQVAPFVCAVLDSQAISHWDLSIVCCTDAFIRRLNYDYRGIDSPTDVLSFENDGEYCDDAGTRFFLAGDIIISLESVRENSERFHVAAHEEFKRVLIHGILHLSGMDHQDNSPGQEMLRLQERILAQHCRVLSSGIPWES
# B5: TP0772 (protein, UniProt O83751 1-274)
# chain: MCATLRPMETLGFCMLSPSTLPLRKWGIRLCRAGYRALGALLGTGVLVCCASSTNMTVSNDYPPKELGVLNAYTVDRLRTAISPRDFTFVFDPPIDTVLMQFKFLLDGITLYLERKDRTALREAIEKYLGEYEAQTLTREKSSERAYFGTTTPLMTWGILGSAHNATPTMRFEYQFITDDRPYFIIANRTIPGANGYNCPAVRIALSPAQCSQVMQYLDQGNLDALLEEMAQSFETFDTQQDPKKTPETDKNAAYKGKEKKGKKEERGPRSIMK
# B6: TP0183 (protein, UniProt O83213 1-281)
# chain: MKKGVRSSRLLILFVLFAHAVHAAPRVGVYRLEVSGVPAHTETTINDALFSFIRELRGYHVVDCREQAVPHRFPEKGNLDYIFCGAMDLTPEGIRLAVALKGKDHNATRLLSKTYETAARILLDSRHLVRDVFDRSVPLTGNQTETSSMRHTRAGEESVSSLDALAGSWHSTEEGERIVIVSEGRGIAVLRSGLSVPLKLKISDGVLVVSQKGAVNARQFSHFPPEIAQKLAQEARPLQWRFPKISGNNRLSGVRTAPVVRGAGHTASVEYEEVPEEWVRN
# Tests used:
# [1] = biological target: T1, GyrB (Treponema pallidum); assay: two-hybrid; systematic array-based yeast two-hybrid screen of the T. pallidum proteome; baits in pAS1-loxP or pLP-GBKT7Amp against arrayed preys in pLP-GADT7
# [2] = biological target: T2, ribulose-3-P-epimerase (Treponema pallidum); assay: as above
# [3] = biological target: T3, Myc-tagged GyrB protein (Treponema pallidum); assay: co-IP; E. coli BL21/DE3 co-transformed with Myc-tag (pBad24Myc_loxP) and HA-tag (pBad33HA_loxP) fusions, induced with 0.2% L-Ara for 3 h at 37°C; precipitated with anti-Myc, blots probed with anti-HA and anti-Myc; empty Myc-tag vector as control
# [4] = biological target: T4, peptide deformylase (Treponema pallidum); assay: two-hybrid; systematic array-based yeast two-hybrid screen of the T. pallidum proteome; baits in pAS1-loxP or pLP-GBKT7Amp against arrayed preys in pLP-GADT7
# [5] = biological target: T5, ribosomal protein L32 (Treponema pallidum); assay: as above
# [6] = biological target: T6, TP0701 (Treponema pallidum); assay: as above
# [7] = biological target: T7, DNA replication initiation protein DnaA (Treponema pallidum); assay: as above
# [8] = biological target: T8, SbcD (Treponema pallidum); assay: as above
binder,measurement,setting,value
B1,binding,[1],binds
B2,binding,[2],binds
B3,binding,[3],binds
B4,binding,[4],binds
same,binding,[5],binds
B5,binding,[6],binds
B6,binding,[7],binds
same,binding,[8],binds

# From publication PMC2386257
